# Test results reported in PubChem BioAssay AID445 (National Center for Advancing Translational Sciences (NCATS), 2006).
# The other results are listed elsewhere or left out. The main result of the screen is listed elsewhere. These columns were measured beside it and carry no call. Most of these compounds were active or inconclusive in the main read-out, so they are no random draw. The note in brackets gives the kind of curve behind each potency; many fits are weak.
# Test: IkB Signaling
# Conditions: ABC-DLBCL IkBa-CBG/CBR dual luciferase ratio (green luciferase fused to IkBa over red control in OCI-Ly3 lymphoma cells), 4 h
# How it was run: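 Curves were fitted separately to fusion (green), unfused (red) and ratio luminescence, then classed by r2, magnitude and activity. Cells: OCI-Ly3, 4 h compound plus doxycycline at 37C; 10 uM MG-132 defined full response.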
# [1] = measured here: control luc red channel unless noted
# [2] = measured here: IkB-luc green channel
# [3] = measured here: control luc red channel
structure (smiles),measurement,setting,value
Cc1ccc(NC(=O)c2cc(-c3ccco3)on2)cc1,AC50,[1],"2.51 µM [falling, full curve]"
CC(C)Cn1c(=O)c2ccccc2n2c(CCC(=O)N3CCN(c4cccc(Cl)c4)CC3)nnc12,AC50,[1],"20 µM [falling, partial curve]"
COCCCN(Cc1ccco1)C(=O)c1cc2c(s1)-c1ccccc1OC2,AC50,[1],"20 µM [falling, partial curve]"
O=C(COc1ccccc1)Nc1sc2c(c1C(=O)Nc1ccccc1Cl)CCCCC2,AC50,[1],"7.94 µM [falling, partial curve]"
CCN(Cc1nc(-c2cccc(C)c2)no1)S(=O)(=O)c1ccc(C)cc1,AC50,[1],"31.6 µM [falling, single point]"
Cc1ccccc1-c1noc(-c2ccc(N3CCN(c4ccccc4)CC3)c([N+](=O)[O-])c2)n1,AC50,[1],"1.58 µM [rising, partial curve]"
CC(=O)OCc1cc(=O)n2nc(C3CCCCC3)sc2n1,AC50,[1],"12.6 µM [falling, partial curve]"
CCOc1ccc(NC(=O)CCN2CCN(S(=O)(=O)c3cc(Cl)ccc3OC)CC2)cc1,AC50,[1],"12.6 µM [falling, partial curve]"
Cc1c(C(=O)NC(C)c2ccccc2)sc2ncnc(N(C)C3CCCCC3)c12 (centres undefined),AC50,[1],"25.1 µM [falling, partial curve]"
O=S(=O)(Nc1ccc(-c2ccc(N3CCCCC3)nn2)cc1)c1ccc(OC(F)(F)F)cc1,AC50,[1],"12.6 µM [falling, partial curve]"
Cc1nn(-c2ccc(N3CCCCC3)nn2)c(C)c1CCC(=O)NCc1ccc(F)cc1,AC50,[1],"6.31 µM [falling, partial curve, poor fit]"
FC(F)(F)c1cccc(-n2cc(-c3ccccc3)c3c(N4CCCCC4)ncnc32)c1,AC50,[1],"10 µM [falling, partial curve, poor fit]"
CCOC(=O)C1CCN(c2nc3c(S(=O)(=O)c4ccc(Br)cc4)nnn3c3ccsc23)CC1,AC50,[1],"5.01 µM [falling, single point]"
COc1ccc(CNC(=O)c2cc3c(-c4ccc(Cl)cc4)nn(C)c3s2)cc1,AC50,[1],"3.98 µM [falling, full curve]"
COc1ccc(S(=O)(=O)N(CCc2ccccc2)CC(=O)NCc2ccccc2)cc1,AC50,[1],"12.6 µM [falling, partial curve]"
Cn1c(=O)n(C)c2cc(NS(=O)(=O)c3ccc(F)cc3)c(NCc3ccccc3)cc21,AC50,[1],"20 µM [falling, partial curve]"
OC(CN1c2ccccc2Sc2ccccc21)Cn1nnc2ccccc21 (centres undefined),AC50,[2],"39.8 µM [falling, single point]"
same,AC50,[3],"12.6 µM [falling, partial curve]"
CCOC(=O)c1cccc(NC(=O)Cn2nc3c(cc2=O)CCCC3)c1,AC50,[1],"0.2 µM [falling, full curve]"
CCOC(=O)c1c(S(=O)(=O)N2CCCC(C(=O)Nc3ccc(OCC)cc3)C2)c(C)n(C)c1C (centres undefined),AC50,[1],"39.8 µM [rising, single point]"
CCC1Oc2ccccc2N(CC(=O)NCCN2CCc3ccccc3C2)C1=O (centres undefined),AC50,[1],"10 µM [falling, partial curve]"
Cc1ccc(-c2cc(NC(=O)c3ccccc3Cl)on2)cc1,AC50,[1],"0.794 µM [falling, full curve]"
O=C(Nc1nc2nc(-c3ccccc3)cc(-c3ccccc3)n2n1)c1ccco1,AC50,[1],"10 µM [falling, partial curve]"
O=C(Nc1ccc(C(=O)N2CCN(c3ccc(F)cc3)CC2)cc1)c1nsc2ccccc12,AC50,[1],"0.398 µM [falling, full curve]"
CC(C)C1C(C#N)=C(N)Oc2n[nH]c(-c3ccccc3)c21 (centres undefined),AC50,[1],"3.16 µM [falling, full curve]"
CCCCN(CCCC)c1ncnc2c1cnn2-c1cccc(C)c1,AC50,[1],"3.16 µM [rising, partial curve]"
CCOC(=O)C1CCN(S(=O)(=O)c2cc(-c3onc(C)c3C)ccc2C)CC1,AC50,[1],"31.6 µM [falling, partial curve]"
COc1ccc2[nH]cc(CCNc3ncnc4ccc(-c5ccc(C(=O)N(C)C)cc5)cc34)c2c1,AC50,[1],"3.98 µM [falling, single point] [measured here: IkB-luc green channel]"
O=C(CCN1CCN(c2ccc(Cl)cc2)CC1)Nc1ccccc1F,AC50,[1],"794 nM [rising, partial curve, poor fit] [measured here: IkB-luc green channel]"
CCc1ccccc1Nc1cc(C(=O)NCc2ccc(C)cc2)c2ccccc2n1,AC50,[1],"3.98 µM [falling, full curve]"
CCOC(=O)N1CCN(C(=O)c2ccc3c(c2)N(Cc2ccccc2F)C(=O)c2ccccc2S3=O)CC1 (centres undefined),AC50,[1],"15.8 µM [falling, partial curve]"
O=C(c1c2c(nc3ccccc13)C(=O)N(C1CCCCC1)C2)N1CCN(c2ccc(F)cc2)CC1,AC50,[1],"10 µM [falling, partial curve]"
CC(C)CCNC(=O)CN1C(=O)CCn2nc(-c3cn(C)c4ccccc34)cc21,AC50,[1],"2 µM [falling, partial curve]"
CCOc1ccc(NC(=O)CSc2oc(-c3ccco3)nc2S(=O)(=O)c2ccc(C)cc2)cc1,AC50,[1],"6.31 µM [falling, partial curve]"
CCCOc1ccc(/C=C/C(=O)Nc2sc(C)c(C)c2C(=O)OCC)cc1OC,AC50,[2],"31.6 µM [rising, partial curve]"
same,AC50,[3],"25.1 µM [rising, partial curve]"
CCOc1ccc(S(=O)(=O)NCCc2csc(-c3ccc(Cl)cc3)n2)cc1,AC50,[1],"12.6 µM [falling, partial curve]"
COc1ccc(NC2=Nc3ccccc3CC2)cc1,AC50,[1],"20 µM [falling, single point]"
CC(C)Cn1c(SCC(=O)NC(=O)NC2CCCC2)nc2ccccc21,AC50,[1],"25.1 µM [falling, partial curve]"
COc1ccc(OCc2ccc(-c3nc(C#N)c(N4CCN(C)CC4)o3)o2)cc1,AC50,[1],"31.6 µM [falling, single point]"
CCC(c1nnnn1Cc1ccco1)N(Cc1cc2cc(C)cc(C)c2[nH]c1=O)CC1CCCO1 (centres undefined),AC50,[1],"15.8 µM [falling, partial curve]"
Cc1ccc2c(CN3CCN(Cc4ccccc4Cl)CC3)cc(=O)oc2c1,AC50,[1],"31.6 µM [falling, single point]"
COc1ccc(C2CC(=O)Nc3c2c(=O)nc2c(C)cccn32)cc1OC (centres undefined),AC50,[1],"0.00631 µM [falling, full curve, poor fit]"
CCCCC1CCC(C(=O)N2CC(=O)Nc3ccc(F)cc3C2c2ccc(F)cc2)CC1 (centres undefined),AC50,[1],"7.94 µM [falling, full curve, poor fit]"
Cc1nc2sc(C(=O)N(C)Cc3ccccc3)c(NC(=O)c3ccccc3)c2c(C)c1Cl,AC50,[1],"6.31 µM [falling, partial curve]"
CCOc1ccc(CNC(=O)c2ccc(Sc3ccc(Cl)cc3)c(NC(C)=O)c2)cc1,AC50,[1],"31.6 µM [falling, single point]"
O=C(NCC1CCN(Cc2ccccc2F)CC1)Nc1ccc(F)c(Cl)c1,AC50,[1],"0.0631 µM [falling, full curve, poor fit]"
CCCOc1ccc(C(=O)Nc2cc3c(cc2N2CCCCC2)n(C)c(=O)n3C)cc1,AC50,[2],"25.1 µM [rising, partial curve]"
same,AC50,[3],"39.8 µM [falling, single point]"
CC(C)c1ccc(N(CC(=O)O)S(=O)(=O)c2ccc3[nH]c(=O)c(=O)[nH]c3c2)cc1,AC50,[1],"0.631 µM [rising, full curve]"
Cc1ccc(S(=O)(=O)Cc2nc(-c3ccc(C(=O)NCCCOC(C)C)cc3)oc2C)cc1,AC50,[1],"3.98 µM [falling, partial curve]"
c1ccc(-c2ccc(-c3ccccn3)nn2)nc1,AC50,[1],"3.98 µM [falling, full curve]"
CSc1ccc(CCNC(=O)CCCn2c(=O)c3cccn3c3ccccc32)cc1,AC50,[1],"6.31 µM [falling, partial curve]"
CSc1ncc2c(n1)-c1ccccc1N(Cc1ccccc1)S2(=O)=O,AC50,[1],"25.1 µM [falling, partial curve]"
O=C1c2[nH]nc(-c3ccc(F)cc3)c2C(c2ccccc2F)N1c1ccccc1 (centres undefined),AC50,[1],"15.8 µM [falling, partial curve]"
O=C(NCc1ccc(F)cc1)C(=O)NCC(c1ccc2c(c1)OCO2)N1CCOCC1 (centres undefined),AC50,[1],"0.2 µM [falling, single point]"
Cc1cccc(-c2nc3nc(C)cc(NC(C)c4ccccc4)n3n2)c1 (centres undefined),AC50,[1],"12.6 µM [falling, partial curve]"
COc1ccc(C(=O)N(Cc2ccco2)Cc2ccc(C)o2)cc1,AC50,[1],"25.1 µM [falling, single point]"
CNC(=O)c1c(NC(=O)/C=C/c2ccccc2)sc2c1CCC2,AC50,[1],"0.0398 µM [falling, full curve]"
Cc1ccc2nc(-c3ccc(NC(=O)COc4ccc(Br)cc4Br)cc3)sc2c1,AC50,[1],"0.631 µM [rising, full curve]"
CCOc1ccc(NC(=O)Cn2nnc(-c3nc(-c4ccncc4)no3)c2N)cc1,AC50,[1],"6.31 µM [rising, full curve]"
Cc1ccccc1NC(=O)/C(C#N)=C/c1ccc(Cl)cc1Cl,AC50,[2],"10 µM [rising, partial curve]"
same,AC50,[3],"15.8 µM [rising, partial curve]"
CCc1ccc(NCc2cc3cc4c(cc3n(CC(=O)Nc3ccccc3C)c2=O)OCCO4)cc1,AC50,[1],"1.58 µM [falling, partial curve]"

# Fetched one by one from the entries so far (5):
structure (smiles),measurement,setting,value
COc1ccc2[nH]cc(CCNc3ncnc4ccc(-c5ccc(C(=O)N(C)C)cc5)cc34)c2c1,AC50,[1],"3.98 µM [falling, single point] [measured here: IkB-luc green channel]"
CCCOc1ccc(C(=O)Nc2cc3c(cc2N2CCCCC2)n(C)c(=O)n3C)cc1,AC50,[2],"25.1 µM [rising, partial curve]"
COc1ccc(C2CC(=O)Nc3c2c(=O)nc2c(C)cccn32)cc1OC (centres undefined),AC50,[1],"0.00631 µM [falling, full curve, poor fit]"
CCCOc1ccc(/C=C/C(=O)Nc2sc(C)c(C)c2C(=O)OCC)cc1OC,AC50,[3],"25.1 µM [rising, partial curve]"
Cc1nn(-c2ccc(N3CCCCC3)nn2)c(C)c1CCC(=O)NCc1ccc(F)cc1,AC50,[1],"6.31 µM [falling, partial curve, poor fit]"
